For at least one compound, name, drawing or mass did not settle the structure.
System: new HF formation by EDIHN in wounded skin
Test: whole-mount EDIHN assay after excisional wounding of mice
Type: in vivo
Details: administered 11 days after incisional wounding, as described in Example 11
From the text: Punch wound and excisional wound induction. The backs of 21-day-old mice were depilated as described for Example 1 and sterilized with alcohol, followed by 1% iodine solution. Punch wounds, 4 mm in diameter, were induced using a dermal biopsy punch, down to, but not through, the muscle fascia. Excisional wounds were full thickness and 1 cm in diameter; skin and panniculus carnosus was excised using fine surgical scissors.
Whole mounting and immunofluorescence. HF whole mounts were obtained by incubating fresh skin with EDTA (20 mM in PBS) at 37° C. overnight, then separating the epidermis and dermis. Epidermis was then fixed in 10% formalin for 10 min, room temperature (RT). Dermis was fixed in acetone overnight, RT. After rinsing with PBS, whole mounts were stained with antibodies for immunohistochemistry (schematically depicted in FIG. 12) and were imaged using a Leica confocal microscope.
21 day-old mice were wounded as described in previous Examples. Starting from day 11 after wounding, a time point corresponding to the point at which the wound had recently re-epithelialized, 10 mL of 1 mg/ml EGF was injected into the wound bed. EGF was injected once per day after this point for a total of 5 days. […] In addition, whole mounts of control and treated skin were analyzed with anti-K17 antibody immunostaining. […]

Nc1cc(N2CCCCC2)nc(N)[n+]1[O-] [Minoxidil, minoxidil, reference compound]
HF formation (EDIHN): enhances HF formation

Source: US8252749B2, “Methods, kits, and compositions for generating new hair follicles and growing hair” (Follica, Inc., priority 2006, dated 2012)
